Measurements reported in PubChem BioAssay AID1671195 (Yale University, 2021)
Purpose: 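Knockdowns that increase or decrease uptake of fluorescent LDL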 (primary screen). Cells: human Huh7 hepatoma cells. Reagent: siRNA pool against human genes, 18 nM. Duration: about 2 to 2.5 days of knockdown, then 8 h LDL uptake. Conditions: DiI-labelled LDL at 30 µg/ml for 8 h, in lipoprotein-deficient serum medium. Detection: 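Per-cell DiI-LDL intensity by automated imaging; well means scaled to the plate median and given as a robust z-score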. Reading the numbers: robust z-score: higher = more LDL uptake after knockdown. Active means: 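a gene counts as active if at least two replicate z-scores exceed ±2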.
The deposit covers about 22,000 reagents; this is a random part of them. About 1,510 of them (6.9%) count as active. 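Active includes knockdowns raising or lowering LDL uptake; positive z-scores mean more uptake, negative mean less.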 A number with no mark means an inactive call.

no.	gene	robust z-score, replicate 1	robust z-score, replicate 2	robust z-score, replicate 3
1	IRS1	-0.375	-1.73	-0.782
2	PPP1R15A	-1.79	-1.59	-1.8
3	SLC38A6	0.0672	-0.0601	0.704
4	SLC34A1	-0.196	-1.04	0.0216
5	SLC44A5	-0.379	-0.829	-0.477
6	SLC25A28	0.964	0.522	0.956
7	NT5C	-0.599	-0.035	-0.772
8	HLA-DMA	3.79 (active)	3.5	3.75
9	TMEM179B	-1.45	-1.12	-1.59
10	STXBP5	-1.38	0.00868	0.256
11	DUSP22	1.24	0.463	1.18
12	KCNMB2	-0.286	-0.479	0.0103
13	LOC441473 (retired record)	-1.71	-1.64	-1.63
14	EGLN1	1.54	0.901	1.9
15	CD2	-0.187	-0.375	-0.599
16	POC1A	-0.189	0.27	-0.407
17	TMC7	-0.668	-0.766	-1.14
18	RAB9A	-0.584	1.62	0.296
19	TCF20	-0.368	-0.0975	-0.282
20	GALNT1	2.47	1.18	1.54
21	FBXW9	0.00569	-0.249	-0.359
22	LOC441128 (retired record)	-0.0693	-0.535	-0.37
23	PCDHGA6	0.354	0.133	-0.403
24	LIME1	1.16	0.367	0.79
25	FLJ46838 (retired record)	0.363	0.304	0.515
26	LOC391727 (retired record)	1.58	1.12	1.27
27	LINC01341	-0.785	-0.764	-0.285
28	LYPD5	0.201	0.806	1.08

Called active (from the list above):
gene	robust z-score, replicate 1	robust z-score, replicate 2	robust z-score, replicate 3
HLA-DMA	3.79 (active)	3.5	3.75

More entries:
no.	gene	robust z-score, replicate 1	robust z-score, replicate 2	robust z-score, replicate 3
29	EFCAB11	-1.61	-1.5	-1.43
30	HOXC8	-1.2	-0.932	-1.26
31	ZNF629	0.657	2.66	-0.851
32	LAG3	0.866	1.17	1.77
33	DLGAP5	-0.63	-0.259	1.51
34	CDC42BPA	-0.836	-1.58	-0.395
35	EXOC6	0.379	0.122	-0.149
36	ANKRD39	-1.03	1.59	1.93
37	GOLGA2P5	-0.549	0.558	-0.564
38	DNAJB13	0.525	0.386	0.638
39	NDRG4	3.88 (active)	4.15	3.31
40	XKRX	1.3	1.14	0.534
41	MED13L	-0.908	-0.278	-1.69
42	MRPL14	0.887	0.398	0.614
43	PUDP	0.494	0.364	-0.256
44	ETS2-AS1	0.0646	0.41	0.183
45	EBF4	-1.04	-0.12	0.596
46	DEFB114	-0.0903	-0.143	-0.525
47	ZSWIM3	-0.0488	0.672	0.701
48	MTARC2	0.576	0.254	-1.18
49	FBXO17	-0.915	0.394	0.199
50	TMEM38B	0.635	0.481	2.38
51	ADAM2	0.262	-0.166	0.737
52	CPNE2	0.985	1.59	1.45
53	TLE5	0.493	0.723	0.592
54	PCDHGA12	-0.31	0.341	0.0447
55	SNPH	-1.38	0.104	-0.933
56	KCNJ14	0.123	-0.00479	0.565
57	CAND2	-1.11	-1.06	-0.823
58	C11orf68	-0.555	-0.83	-1.16
59	APOL4	-0.0245	0.315	0.0621
60	VSX2	-0.757	-0.883	-0.059
61	LOC440869 (retired record)	-0.891	1.75	0.924
62	TFF1	-0.257	0.731	0.767
63	SH2D4A	-0.829	-0.688	-0.835
64	NRXN1	-0.0684	0.23	1.71
65	ATR	0.986	0.804	0.895
66	LOC442032 (retired record)	0.388	0.658	-1.98
67	PCDHGB6	-0.235	0.0987	0.334
68	LOC149157 (retired record)	-2.07 (active)	-2.11	-1.82
